The source of these data is PubChem BioAssay AID1347426 (Functional Genomics Laboratory (NCATS/FGL), 2020).

In all, about 31,000 sequences went through this assay and about 1,400 (4.5%) were called active.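 How the source made its calls: active means median seed-adjusted z-score above 1 or below -1; inactive means the rest.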 Some of the results follow.

A short description of this assay: Novel Modifiers of Survival Motor Neuron (SMN) Protein: Gene Identification via Genome-wide siRNA Screen.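 Further: luminescence tracks full-length SMN protein made from the SMN2 reporter.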 As to conditions: HEK293T SMN2-luciferase reporter, siRNA knockdown, 72 h; actives lie on both sides. An outline of the steps: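 Steps: spot 1 pmol siRNA, add Lipofectamine RNAiMax in serum-free DMEM, seed HEK293T SMN2–luciferase reporter cells; incubate 72 h at 37 °C; add ONE-Glo; normalize luminescence to control siRNA, log10, MAD. Candidates: |MAD| > 1.0.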
(A reporter such as luciferase makes a cellular process visible.)
For the sequence AGGAGCCCGUUGACACUGATT against SOLH, the median seed-adjusted z-score was inactive: -0.791.

Consider CAUCAGAUUUUGCGAAGAATT against SORT1, for which the median seed-adjusted z-score is inactive: -0.43.

With GGUGGUAUCUGGGUCUGAATT against FGF13, the median seed-adjusted z-score is inactive: 0.875.

Turning to CGAUUAUUAGUAGAGUUCATT against PPME1, the median seed-adjusted z-score is inactive: 0.342.

Take GGUUAUUUCCAGGCAUAUATT against MCOLN2: the median seed-adjusted z-score was inactive: -0.0234.

Regarding GUACCUUGAGAAGAAAUUUTT against ACCN1, the median seed-adjusted z-score is inactive: -0.325.

Regarding CAAUUCCUCCGUCCGCUAATT against IDH3G, the median seed-adjusted z-score is inactive: -0.426.

In the case of GAGUCUCCGUUUGUCGCCATT against FKBP9L, the median seed-adjusted z-score is inactive: 0.666.

Take GGAGAAGUAUUACUACGAUTT against MYCBP2: the median seed-adjusted z-score is inactive: 0.

For GGAAUCCACAAAUACCAAATT against CATSPER2, the median seed-adjusted z-score was inactive: -0.653.

As to CUGUGGGAGUUAUUGUCAATT against CDH13, the median seed-adjusted z-score was inactive: 0.

In the case of CGGAAGCAGUUCCAACUUUTT against AKAP8, the median seed-adjusted z-score was inactive: -0.252.

On to UCAUGAACCUGAUCUGUGATT against RDH5, for which the median seed-adjusted z-score is inactive: 0.305.

For GGUCACCAGUGGGUCAUAATT against DPP4, the median seed-adjusted z-score is inactive: 0.0394.

With GCAACACCAUCGUCUGUGATT against P2RY13, the median seed-adjusted z-score was inactive: -0.0427.

With GGAUAUCCUGCUAGAAGAATT against GALNT12, the median seed-adjusted z-score was inactive: 0.188.

With CCCUCUCAGUACUACGCUATT against ZMYND10, the median seed-adjusted z-score was inactive: 0.255.

Regarding GAAGUCAAGUGAAACGAAUTT against SAMD7, the median seed-adjusted z-score was inactive: 0.161.

With GGCAAUCACUGGUUCGUCUTT against GPR42, the median seed-adjusted z-score was inactive: -0.0972.

With ACAUCAAGGAGUAUUUCUATT against CCL5, the median seed-adjusted z-score is inactive: 0.11.

With CGAUCUCAUAAACUUCGUATT against TJP1, the median seed-adjusted z-score is inactive: 0.0302.

For the sequence CUCCUACAGUGCUAUCAGATT against ENPP2, the median seed-adjusted z-score is inactive: -0.305.

With UGAUCGAAGUGACCCUUCATT against SDR9C7, the median seed-adjusted z-score is inactive: 0.

For CAGUCGCUUCCAAACUCUATT against HOXD8, the median seed-adjusted z-score was inactive: -0.883.

As to GGAUGAAGUAUUCGACUUATT against SNX13, the median seed-adjusted z-score was inactive: 0.253.

As to GGGCUAACUUGGAUUCAUATT against NUP88, the median seed-adjusted z-score is inactive: 0.709.

For the sequence ACCCUAUGUUGAACAAGAATT against ISYNA1, the median seed-adjusted z-score was inactive: 0.

Consider GAACUAUACUUGUCAUGCATT against IL1R1, for which the median seed-adjusted z-score was inactive: 0.135.

In the case of GCAUGUAGCUGCAAUACAATT against SLC9A11, the median seed-adjusted z-score is inactive: -0.12.

Take CAAGCACAUUAUACGUAUATT against SLC9A6: the median seed-adjusted z-score is inactive: -0.0831.

As to AGAUGAAACGGACCCUUUUTT against RGS2, the median seed-adjusted z-score is inactive: 0.00236.

As for CCAGGUUCUUAGAGUAGUATT against ME1, the median seed-adjusted z-score is inactive: -0.258.

On to GCAAGUGGUUUGUCAGUAATT against B3GALT5, for which the median seed-adjusted z-score is inactive: 0.144.

In the case of CCUUCACACGUACCACAAATT against TEKT2, the median seed-adjusted z-score is inactive: -0.349.

As to GAGAGAUCCUCAGACAGAATT against HTATSF1, the median seed-adjusted z-score was inactive: -0.411.

Consider CAGAUGCAAUUGUCAAAUUTT against TKTL2, for which the median seed-adjusted z-score was inactive: -0.0379.

With ACUCUAUAUUGAUGCCCUATT against DGAT2L4, the median seed-adjusted z-score was inactive: 0.145.

For the sequence AGGUUUCAUUGAUAGGCUATT against ZNF222, the median seed-adjusted z-score is inactive: 0.13.

Consider GGCUACCAGUUUGUGCAGATT against RHOT2, for which the median seed-adjusted z-score is inactive: 0.263.

For AAUCACAACUCCUAAAAGATT against POLR2J3, the median seed-adjusted z-score was active: -5.42.

Consider GGGUCUUACUGAUUCCACATT against A4GNT, for which the median seed-adjusted z-score is inactive: 0.213.

As for CCUAGAAGCUUGUUCCAAUTT against STRADA, the median seed-adjusted z-score is inactive: 0.415.

With GUACCUUAUUCUACCACUATT against NDUFA12, the median seed-adjusted z-score was inactive: -0.377.

On to CAGGAAGCAUUGUCGGGCATT against LDHD, for which the median seed-adjusted z-score is inactive: 0.

For ACAUAUAAUAUGUAUGAGATT against ZNF322A, the median seed-adjusted z-score is inactive: 0.0884.

Consider CCAUUGGAUUCGCUCUGAATT against CASR, for which the median seed-adjusted z-score was inactive: 0.111.

For CCUACUUUACGGGUUCUAATT against TXNDC17, the median seed-adjusted z-score is inactive: 0.245.

As for CGUUUAACGUGGUGCUGUUTT against GPR32, the median seed-adjusted z-score is active: -1.2.

As for GCAAUAGUCAGGAGCGAUATT against PPP1R10, the median seed-adjusted z-score is active: 1.41.

As for GGGAUAAGUGGGACCAGUATT against CHERP, the median seed-adjusted z-score is inactive: 0.155.

As to GCACGUACCUCAUUCAGCATT against ZNF550, the median seed-adjusted z-score was inactive: 0.131.

For AGUUCACCCUCUUCAAGAATT against ZFYVE19, the median seed-adjusted z-score is inactive: 0.0704.

For the sequence CGGAGUUCACAGCUCUAUATT against BCL2L2, the median seed-adjusted z-score was inactive: 0.

On to CAUUGUAAAUUAUGCGAGUTT against ZFR, for which the median seed-adjusted z-score is inactive: -0.048.

With GCAUCUUCGUGGAACUGCATT against EPHA10, the median seed-adjusted z-score is inactive: 0.502.

As to GCAUAGCCUAUUUACGGAATT against UNC5D, the median seed-adjusted z-score was inactive: -0.132.

Consider CCGCCGUUAUUAAACGAUUTT against HBS1L, for which the median seed-adjusted z-score is inactive: -0.509.

As for CCUAACCUGCUGUCUCUUATT against ZNF646, the median seed-adjusted z-score is inactive: 0.

GUCUUAGAAUGUGAACGUATT against CCNL1: the median seed-adjusted z-score was active: -1.26.

In the case of AGGGCUACGCUGACCUGUATT against CYB561, the median seed-adjusted z-score was inactive: 0.

For GUGAGGAGUCCAUCCUGUATT against VPS16, the median seed-adjusted z-score was inactive: 0.306.

Consider CUGUCAUACUUUGACCGAATT against TJP1, for which the median seed-adjusted z-score was inactive: 0.0302.

For CAAGAGCUGUCGUGACUCATT against GPR120, the median seed-adjusted z-score was inactive: -0.578.

With GGCAUACCCAACAACCUCATT against GALE, the median seed-adjusted z-score is inactive: -0.153.

Consider GGAUGUGAAUGUCGCUAUUTT against TUBA8, for which the median seed-adjusted z-score was inactive: -0.0453.

On to GUAGCUAAAUCAUAUAACATT against CGA, for which the median seed-adjusted z-score was inactive: 0.0904.

For the sequence GAGAGACAGUUAUUAAGGATT against DCTN1, the median seed-adjusted z-score was inactive: 0.25.

Take GAUCCGACUGGAGAAUGAATT against KRT10: the median seed-adjusted z-score was inactive: 0.493.

For the sequence AGGACCACGCGUCUACUUUTT against PPP1R14B, the median seed-adjusted z-score is inactive: 0.205.

GGAAUGACAUGUACGAUGATT against USP7: the median seed-adjusted z-score was inactive: 0.105.

Consider GGAUGAGAGAGGACAUGCATT against STK32C, for which the median seed-adjusted z-score was inactive: -0.311.

For GGCUAUUGAUAGAGUUAAATT against PRIM2, the median seed-adjusted z-score was inactive: -0.0161.

For the sequence GAGUUAUUGUGGAAGUAGATT against PCDHA4, the median seed-adjusted z-score is inactive: -0.268.

For the sequence AGAACAAGCUUUCCAAUCATT against ME3, the median seed-adjusted z-score was inactive: 0.166.

As for GAAUUUGCAACCAAGCUAATT against SPTAN1, the median seed-adjusted z-score is inactive: -0.233.

For ACCUCCUUGUGAUAACGGATT against KLRG1, the median seed-adjusted z-score was inactive: -0.0324.

In the case of CGAGUGUUCCCGGACAACATT against PODNL1, the median seed-adjusted z-score was inactive: -0.448.

For GGUUUGAGCUUACUCUUCATT against ACCN5, the median seed-adjusted z-score was inactive: 0.227.

Regarding GCCUGAAGUUUCGAAAGAATT against CXCR6, the median seed-adjusted z-score was inactive: 0.71.

As to CAGAUCUUAUUAAGAGGUATT against ATP8A2, the median seed-adjusted z-score was inactive: 0.

Take GGAUGACUGAGUACCUGAATT against BCL2: the median seed-adjusted z-score is inactive: 0.

CGUUGAGAGUACUACCGAATT against SEC24C: the median seed-adjusted z-score is inactive: 0.163.

On to UGGUCCAGGUGAUUCGGCATT against TRIM41, for which the median seed-adjusted z-score is inactive: -0.164.

In the case of CGCCUUUGCUCAUGACAUUTT against NOS2A, the median seed-adjusted z-score is inactive: 0.419.

On to GCGGGUACUUCGUUCCUUATT against SLC16A11, for which the median seed-adjusted z-score was inactive: -0.396.

For GCACCUUUGCAUUAUGUUATT against VN1R2, the median seed-adjusted z-score is inactive: -0.151.

On to AAGUUUUCAUCAUCCGCAATT against SOAT2, for which the median seed-adjusted z-score was inactive: 0.612.

As for CUCUCUCAACGAUGCCUAUTT against DUSP9, the median seed-adjusted z-score was inactive: 0.61.

For the sequence UGCUAGUCCUGGGAACAGATT against PPM1J, the median seed-adjusted z-score is inactive: -0.901.

As to GGCUCACAAUCACUUGAUUTT against ZNF578, the median seed-adjusted z-score was inactive: -0.808.

With GGAGGAGUGAGAAUCAGAATT against ZBED1, the median seed-adjusted z-score is inactive: 0.0567.

As for GCAAGAUUCGGGUUAUUGATT against CORO2A, the median seed-adjusted z-score was inactive: 0.

Consider ACAAGUUACUGAACCAGGATT against PRKCG, for which the median seed-adjusted z-score is inactive: 0.

Turning to CCAUCAACGCCAACGUGCATT against ELA2, the median seed-adjusted z-score was inactive: 0.586.

GGAGCAUUUUGAUACCAGATT against CCND1: the median seed-adjusted z-score is inactive: -0.912.

Take GCAAAUUGCUUGCGCCUGATT against XIRP2: the median seed-adjusted z-score was inactive: -0.404.

In the case of GACCCGAAAAUGUUGCGGATT against IRX5, the median seed-adjusted z-score is inactive: -0.373.

As to CCAUUGAUCUGCACUACUATT against NUP85, the median seed-adjusted z-score is inactive: 0.948.

GCACAAUUGAUGACACCAUTT against CLINT1: the median seed-adjusted z-score was inactive: 0.332.

With GAACAGUUGCUAGACAGUATT against TESK2, the median seed-adjusted z-score was inactive: 0.

CAAAUCGCCUAAUAAACUUTT against KRT33B: the median seed-adjusted z-score was inactive: 0.04.

With CCAGCAAAAUUACCAGAAUTT against YBX1, the median seed-adjusted z-score is inactive: -0.0115.

As to GGUCAGGGCUUCUUACUUATT against KIF3B, the median seed-adjusted z-score is inactive: 0.554.

With CGAUAAUCUUCUUAGAGUUTT against ADAM28, the median seed-adjusted z-score was inactive: 0.211.

For the sequence CAUCAUCACUGGAGCCCUUTT against CHN2, the median seed-adjusted z-score is inactive: -0.478.

As to AGCACAAGGUGGAACCGGUTT against CYGB, the median seed-adjusted z-score is inactive: -0.34.

Take UGGUGCUUCUAUCCUAAUATT against TFF1: the median seed-adjusted z-score is inactive: -0.469.

On to GGUUAUGACUGGGUUGGGATT against BEST3, for which the median seed-adjusted z-score was inactive: -0.211.
